Test [1] concerns the target R2C7-1 monoclonal antibody. Briefly: cell-based competitive ELISA: R2C7-1 absorbed with the soluble domain, then bound to fixed 293T/VEGFR2 cells, OD405. Background: In an ELISA, binding on a coated surface is turned into a signal by an enzyme label.
For test [2], the target named is R2C9-11 monoclonal antibody. Briefly: cell-based competitive ELISA: R2C9-11 absorbed with the soluble domain, then bound to fixed 293T/VEGFR2 cells, OD405.
Test [3] deals with R2C9-11 monoclonal antibody. Briefly: cell-based competitive ELISA: R2C9-11 absorbed with the soluble domain, then bound to 293T/VEGFR3 cells, OD405.
Test [4] concerns the target R2C7-1 monoclonal antibody. The test is described as follows: cell-based competitive ELISA: R2C7-1 absorbed with the soluble domain, then bound to 293T/VEGFR3 cells, OD405.

The chains behind the UniProt entries cited, without tags or fusion partners. Residues count along the entry.
VEGFR2 IgD6 (individual recombinant immunoglobin-like domain 6 of VEGFR2) (P35968, residues 551-660): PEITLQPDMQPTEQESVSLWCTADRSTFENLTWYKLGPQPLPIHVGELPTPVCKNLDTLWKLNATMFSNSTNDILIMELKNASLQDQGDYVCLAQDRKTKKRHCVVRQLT
R2IgD7 (P35968, residues 667-753): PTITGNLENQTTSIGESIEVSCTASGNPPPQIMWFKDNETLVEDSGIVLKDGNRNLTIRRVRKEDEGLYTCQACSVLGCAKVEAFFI
UniProt P35916, residues 555-671: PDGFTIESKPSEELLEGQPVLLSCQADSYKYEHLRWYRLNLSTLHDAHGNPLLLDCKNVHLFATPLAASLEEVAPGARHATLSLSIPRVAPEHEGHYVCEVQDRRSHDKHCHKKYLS

Results are given in words; binding and its absence hold for the method and conditions named. Some results given as binding are weak or reduced against the parent protein; the word gives no strength.

For R2IgD7 (from UniProt P35968) (receptor), the binding result in test [1] and in test [2] was “binds” in each case.
For the substance “R3-IgD6 (from UniProt P35916) (receptor)”, the binding entry in test [3] and in test [4] was “binds” throughout.
Consider “VEGFR2 IgD6 (individual recombinant immunoglobin-like domain 6 of VEGFR2) (from UniProt P35968 551-660) (receptor)”, for which the binding result in test [1] and in test [2] was “binds” in each case.

For the origin of these results see patent publication US20210032353A1 (NATIONAL HEALTH RESEARCH INSTITUTES, published 2021).
